This is an account of results in publication PMC4028107, “Adenosine deaminase activity modulation by some street drug: molecular docking simulation and experimental investigation” (DARU Journal of Pharmaceutical Sciences, 2014).

The assay addresses T1, adenosine deaminase (Bos taurus, UniProt P56658).
T1 construct: Adenosine deaminase (EC 3.5.4.4) extracted from bovine spleen; purchased sigma; host or cells: bovine spleen (tissue extract)
T1 sequence (P56658 1-363): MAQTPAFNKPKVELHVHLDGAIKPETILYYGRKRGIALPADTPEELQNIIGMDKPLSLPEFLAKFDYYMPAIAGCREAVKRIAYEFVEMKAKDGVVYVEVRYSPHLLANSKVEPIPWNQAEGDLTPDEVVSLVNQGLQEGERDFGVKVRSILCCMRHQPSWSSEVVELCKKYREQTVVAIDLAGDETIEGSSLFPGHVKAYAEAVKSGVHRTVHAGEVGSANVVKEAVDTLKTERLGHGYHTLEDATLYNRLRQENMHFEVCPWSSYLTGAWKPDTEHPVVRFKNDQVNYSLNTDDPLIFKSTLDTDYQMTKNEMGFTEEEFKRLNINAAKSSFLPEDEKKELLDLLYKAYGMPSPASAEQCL
The experiment in a line: Fluorescence spectroscopy of ADA (Trp emission). The format is binding, bovine. The following applies: excitation 290 nm, emission 300-400 nm, pH 7.4, enzyme 6 μM, compounds 1.7 to 73.4 μM. As to the method: Fluorescence spectroscopy was performed on a Hitachi fluorescence spectrophotometer model MPF-4 with 1 cm path length fluorescence cuvette and final volume of 400 μL. The excitation wavelength was adjusted in 290 nm, and the emission was scanned every 1 nm in the range of 300 to 400 nm. The final concentration of enzyme was 6 μM and different concentrations of tested compounds were changed from 1.7 to 73.4 μM.

On to `CN1CC[C@]23c4c5ccc(O)c4O[C@H]2[C@@H](O)C=C[C@H]3[C@H]1C5` [Morphine], for which the “change in fluorescence spectra of ADA” value is “do not show noticeable change and shift”.
